The target of this test is Pma1, plasma membrane H+-ATPase (proton pump) of Candida glabrata (Candida glabrata (endogenous in CBS138)) (UniProt Q6FXU5). As to the kind of experiment: cryo-electron tomography; tomograms of vitrified crude plasma membranes from C. glabrata spheroplasts ruptured by hypotonic shock, in PBS; Talos Arctica 200 kV; particles assigned by size and morphology; untreated or caspofungin-treated spheroplasts.

Results are given in words; binding and its absence hold for the method and conditions named. Some entries that bind do so weakly or less than the wild type.

B1: Pma1, plasma membrane H+-ATPase (proton pump) of Candida glabrata (protein, UniProt Q6FXU5 1-902)
chain: MSDVESNNEKPPQDVYEDEEMSEDDDIDALIEELQSHHGMGDDDDSEDEGHHTGSARVVPEEYLQTDPSYGLTSDEVAHRRKKYGLNQMADERESMIVKFVMFFVGPIQFVMEAAAILAAGLSDWVDFGVICGLLMLNACVGFIQEFQAGSIVDELKKTLANVAVVIRDGQLVEVPANEVVPGDILQLEDGTIIPADGRLVTENCFLQVDQSAITGESLAVDKGYGDQTFSSSTVKRGEAFMVVTATGDNTFVGRAAALVNKASGGQGHFTEVLNGIGILLLVLVIVTLLGVWAACFYRTDNIVKILRFTLGITIIGVPVGLPAVVTTTMAVGAAYLAKKQAIVQKLSAIESLAGVEILCSDKTGTLTKNKLSLHEPYTVEGVSADDLMLTACLAASRKKKGLDAIDKAFLKSLINYPKAKDALTKYKVIEFHPFDPVSKKVTAVVESPEGERIVCVKGAPLFVLKTVEEDHPIPEDVHENYENKVAELASRGFRALGVARKRGEGHWEILGVMPCMDPPRDDTAETVNEARRLGLRVKMLTGDAVGIAKETCRQLGLGTNIYNAERLGLGGGGDMPGSELADFVENADGFAEVFPQHKYKVVEILQNRGYLVAMTGDGVNDAPSLKKADTGIAVEGASDAARSAADIVFLAPGLSAIIDALKTSRQIFHRMYSYVVYRIALSLHLELFLGLWIIILNHSLDIELIVFIAIFADVATLAIAYDNAPFSQTPVKWNLPRLWGMSIILGIVLAIGTWICLTTMFLPRGGIIQNFGSIDGVLFLQISLTENWLIFVTRAVGPFWSSIPSWQLAGAVFAVDIIATMFTLFGWFSQNWTDIVTVVKIYIWSIGVFCVLGGFYYIMSESVVFDRLMNGKPLKEEKSTRSVEDFLAAMQRVSTQHEKEN
With B1, the binding entry is “binds”.
